From patent publication US11137400B2, “Methods for predicting and determining responsiveness to activators of JNK kinase” (UNIVERSITY OF PITTSBURGH-OF THE COMMONWEALTH SYSTEM OF …, priority 2017, dated 2021)
At least one structure is not confirmed: it was looked up by name or label, or the drawing left a doubt.

Test system: hXBP1s
Assay: Western blot of endogenous hXBP1s in primary BMSCs derived from MM patients
Type: cell-based, human
Conditions: 2-hr treatment; BMSCs from three individual MM patients

Oc1c2ccccc2c2c3c(cccc13)N=N2 [SP600125]
steady-state protein levels of endogenous hXBP1s: consistent increase
